These results are taken from the supplement of paper PMC4635364.

Counter-ions that a name gives are not always drawn. The list shows a part of the results. Single values are uncertain here, since repeats match poorly.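 Human fetal ventral-midbrain neural progenitor line ReNCell VM, differentiated without mitogens. Images stained for doublecortin (early neurons) or tyrosine hydroxylase (dopaminergic neurons) were scored by blinded raters against untreated wells (0 = no change). Repeats and both raters were averaged, and compounds averaging 2 or higher were picked as hits for retesting.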

Assay [1] has as its system ReNCell VM. Put plainly: neuronal differentiation score (DCX+ cell fraction vs untreated, manual image score) (score (-3 to 3)); higher = more neuronal differentiation. The note with it: 2 uM, 2 weeks.
Assay [2] relates to ReNCell VM. Briefly: dopaminergic neuron differentiation score (TH+ cell fraction vs untreated, manual image score) (score (0 to 3)); higher = more TH+ dopaminergic neuron differentiation. The note with it: 2 uM, 4 weeks, BDNF 10 ng/ml + GDNF 10 ng/ml.

Consider `COc1cc2c(cc1O)CC[C@@H]1[C@@H]2CC[C@]2(C)[C@@H](O)CC[C@@H]12` [2-Methoxyestradiol], for which, in assay [1] (library: Tocriscreen), the neuronal differentiation score is inactive: 0. In addition, the “dopaminergic neuron differentiation score” value in assay [2] (library: Tocriscreen) was inactive: 0.

Consider `CCN(CC)C(=O)c1cccc(C)c1`, for which the neuronal differentiation score in assay [1] (library: Spectrum) is inactive: 0. Further, the “dopaminergic neuron differentiation score” value in assay [2] (library: Spectrum) is inactive: 0.

As to `COC[C@@H]1Cc2cc(OC)c3c(c2[C@H](c2ccc(OC)c(OC)c2)[C@H]1COC)OCO3` [hypophyllanthin], in assay [1] (library: Natural), the neuronal differentiation score was inactive: 0. In assay [2] (library: Natural), the “dopaminergic neuron differentiation score” value is inactive: 0.

As for `Cc1ncc([N+](=O)[O-])n1C`, the neuronal differentiation score in assay [1] (library: Spectrum) is inactive: 0. For the same compound, in assay [2] (library: Spectrum), the “dopaminergic neuron differentiation score” value is inactive: 0.

Turning to `O=C1OC(CN2CCOCC2)CN1/N=C/c1ccc([N+](=O)[O-])o1` (centres undefined), the neuronal differentiation score in assay [1] (library: Spectrum) is inactive: 0. The “dopaminergic neuron differentiation score” value in assay [2] (library: Spectrum) was active: 3.

As for `CN1C2CCCC1CC(NC(=O)c1nn(C)c3ccccc13)C2` (centres undefined) [Granisetron], the neuronal differentiation score in assay [1] (library: Prestwick) is inactive: 0. Further, the “dopaminergic neuron differentiation score” value in assay [2] (library: Prestwick) was inactive: 0.

On to `CC1CCc2cc(F)cc3c(=O)c(C(=O)O)cn1c23` (centres undefined) [Flumequine], for which the neuronal differentiation score in assay [1] (library: Prestwick) was inactive: 0. Moreover, the “dopaminergic neuron differentiation score” value in assay [2] (library: Prestwick) is inactive: 0.

As to `CCCCC(CC)CNC(=N)NC(=N)NCCCCCCNC(=N)NC(=N)NCC(CC)CCCC` (centres undefined) [Alexidine dihydrochloride], the neuronal differentiation score in assay [1] (library: Prestwick) was inactive: 0. In assay [2] (library: Prestwick), the “dopaminergic neuron differentiation score” value was inactive: 0.

`CCCCCCCCCCCCCCCCCCCCCCO`: in assay [1] (library: Spectrum), the neuronal differentiation score is inactive: 0. In assay [2] (library: Spectrum), the “dopaminergic neuron differentiation score” value was inactive: 0.

On to `Cc1cccc(C)c1NC(=O)C1CCCCN1C` (centres undefined), for which the neuronal differentiation score in assay [1] (library: Spectrum) is inactive: 0. In assay [2] (library: Spectrum), the “dopaminergic neuron differentiation score” value was inactive: 0.

With `C[C@]1(OC(=O)/C=C/c2ccccc2)C[C@@H](O)[C@]2(O)C=CO[C@@H](O[C@@H]3O[C@H](CO)[C@@H](O)[C@H](O)[C@H]3O)[C@@H]21` [Harpagoside], the neuronal differentiation score in assay [1] (library: Phytochemical) is inactive: 0. Also, the “dopaminergic neuron differentiation score” value in assay [2] (library: Phytochemical) was inactive: 0.

With `CC(=O)OC1CC2CCC1(C)C2(C)C` (centres undefined), the neuronal differentiation score in assay [1] (library: Spectrum) is inactive: 0. For the same compound, the “dopaminergic neuron differentiation score” value in assay [2] (library: Spectrum) was inactive: 0.

For `CNC(=O)c1c(I)c(C(=O)NCC(=O)Nc2c(I)c(C(=O)O)c(I)c(C(=O)NCCO)c2I)c(I)c(N(C)C(C)=O)c1I` [Ioxaglic acid], in assay [1] (library: Prestwick), the neuronal differentiation score was inactive: 0. The “dopaminergic neuron differentiation score” value in assay [2] (library: Prestwick) is inactive: 0.

As to `O=S(=O)(NCCNC/C=C/c1ccc(Br)cc1)c1cccc2cnccc12` [H 89 dihydrochloride], the neuronal differentiation score in assay [1] (library: Tocriscreen) is inactive: 0. The “dopaminergic neuron differentiation score” value in assay [2] (library: Tocriscreen) is inactive: 0.

With `NS(=O)(=O)c1cccc2c1c([N+](=O)[O-])cc1nc(O)c(O)nc12` [NBQX disodium salt], in assay [1] (library: Tocriscreen), the neuronal differentiation score is inactive: 0. Further, the “dopaminergic neuron differentiation score” value in assay [2] (library: Tocriscreen) was inactive: 0.

As to `CC(N)C12CC3CC(CC(C3)C1)C2` (centres undefined) [Rimantadine Hydrochloride], the neuronal differentiation score in assay [1] (library: Prestwick) is inactive: 0. For the same compound, in assay [2] (library: Prestwick), the “dopaminergic neuron differentiation score” value is inactive: 0.

Consider `CCCc1nc(C(C)(C)O)c(C(=O)OCc2oc(=O)oc2C)n1Cc1ccc(-c2ccccc2-c2nnn[nH]2)cc1`, for which the neuronal differentiation score in assay [1] (library: Spectrum) is inactive: 0. Also, the “dopaminergic neuron differentiation score” value in assay [2] (library: Spectrum) is inactive: 0.

Consider `CC(=O)OCCNC(=O)c1cccnc1` [N-[2-(Acetoxy)ethyl]-3-pyridinecarboxamide], for which the neuronal differentiation score in assay [1] (library: Tocriscreen) was inactive: 0. Further, the “dopaminergic neuron differentiation score” value in assay [2] (library: Tocriscreen) was inactive: 0.

As for `COc1cc2ncnc(Nc3ccc(F)c(Cl)c3)c2cc1OCCCN1CCOCC1` [Iressa], the neuronal differentiation score in assay [1] (library: Tocriscreen) is inactive: 0. The “dopaminergic neuron differentiation score” value in assay [2] (library: Tocriscreen) is inactive: 0.

`Cc1[nH]ccc2c(C)c3nc4ccccc4c3cc12` [Olivacine]: in assay [1] (library: Phytochemical), the neuronal differentiation score was inactive: 0. Moreover, the “dopaminergic neuron differentiation score” value in assay [2] (library: Phytochemical) was inactive: 0.

For `CC(c1cc2ccccc2s1)N(O)C(N)=O` (centres undefined) [Zileuton], the neuronal differentiation score in assay [1] (library: Prestwick) is inactive: 0. The “dopaminergic neuron differentiation score” value in assay [2] (library: Prestwick) is inactive: 0.

Turning to `C[C@@H]1C[C@H]2[C@@H]3CCC4=CC(=O)C=C[C@]4(C)[C@@]3(Cl)[C@@H](O)C[C@]2(C)[C@@]1(OC(=O)c1ccco1)C(=O)CCl` [Mometasone furoate], the neuronal differentiation score in assay [1] (library: Prestwick) is inactive: 0. The “dopaminergic neuron differentiation score” value in assay [2] (library: Prestwick) was inactive: 1.

For `O=S(=O)(O)CCSSCCS(=O)(=O)O`, the neuronal differentiation score in assay [1] (library: Spectrum) is inactive: 0. For the same compound, the “dopaminergic neuron differentiation score” value in assay [2] (library: Spectrum) was inactive: 0.

Consider `COc1ccc(C(=O)NCc2ccc(OCCN(C)C)cc2)cc1OC` [Itopride], for which the neuronal differentiation score in assay [1] (library: Prestwick) is inactive: 0. Also, the “dopaminergic neuron differentiation score” value in assay [2] (library: Prestwick) was inactive: 0.

For `CN(C)c1cc(NC(=O)CNC(C)(C)C)c(O)c2c1C[C@H]1C[C@H]3[C@H](N(C)C)C(O)=C(C(N)=O)C(=O)[C@@]3(O)C(O)=C1C2=O`, in assay [1] (library: Spectrum), the neuronal differentiation score was inactive: 0. The “dopaminergic neuron differentiation score” value in assay [2] (library: Spectrum) is inactive: 0.

Take `CC1(C)CC(=O)C(C2C3=C(CC(C)(C)CC3=O)Oc3ccccc32)C(=O)C1` (centres undefined): in assay [1] (library: Tocriscreen), the neuronal differentiation score is inactive: 0. For the same compound, the “dopaminergic neuron differentiation score” value in assay [2] (library: Tocriscreen) is inactive: 0.

Take `Cc1nc2[nH]c(=O)[nH]c(=O)c2[nH]1` [8-methylxanthine]: the neuronal differentiation score in assay [1] (library: Natural) is inactive: 0. Besides, in assay [2] (library: Natural), the “dopaminergic neuron differentiation score” value is inactive: 0.

With `N=C(N)NC(=N)N1CCOCC1`, the neuronal differentiation score in assay [1] (library: Spectrum) was inactive: 0. The “dopaminergic neuron differentiation score” value in assay [2] (library: Spectrum) was inactive: 0.

`O=C(O)C1Cc2c([nH]c3ccccc23)C(c2coc3ccccc3c2=O)N1` (centres undefined): the neuronal differentiation score in assay [1] (library: Natural) was inactive: 0. The “dopaminergic neuron differentiation score” value in assay [2] (library: Natural) was inactive: 0.

For the compound `CC1CCN=C(N)S1` (centres undefined) [AMT hydrochloride], the neuronal differentiation score in assay [1] (library: Tocriscreen) is inactive: 0. In addition, in assay [2] (library: Tocriscreen), the “dopaminergic neuron differentiation score” value was inactive: 0.

For `C=CC1=C(C(=O)O)N2C(=O)[C@@H](NC(=O)/C(=N\O)c3csc(N)n3)[C@H]2SC1` [Cefdinir], in assay [1] (library: Prestwick), the neuronal differentiation score was inactive: 0. The “dopaminergic neuron differentiation score” value in assay [2] (library: Prestwick) was inactive: 0.

On to `OCCN1CCN(CC/C=C2/c3ccccc3Sc3ccc(Cl)cc32)CC1` [Zuclopenthixol hydrochloride], for which the neuronal differentiation score in assay [1] (library: Prestwick) is inactive: 0. Also, the “dopaminergic neuron differentiation score” value in assay [2] (library: Prestwick) was inactive: 0.
